# Reference: PubChem BioAssay AID493014 (National Center for Advancing Translational Sciences (NCATS), 2011)
# The other results are listed elsewhere or left out. Shown are side measurements of this screen, not its main read-out; they come without a call. Most of these compounds were active or inconclusive in the main read-out, so they are no random draw. The note in brackets gives the kind of curve behind each potency; many fits are weak.
# Assay: qHTS Assay to Find Inhibitors of Chronic Active B-Cell Receptor Signaling
# Settings: ABC-DLBCL IkBa-CBG/CBR reporter, luminescence ratio (green luciferase fused to IkBa over red control in TMD8 lymphoma cells), 4 h
# In short: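 Cell line TMD8 (human ABC DLBCL), stably expressing tet-inducible CBG68-IkBa fusion and CBR; IMDM/0.5% FBS; cpd up to 46 uM; dox induction, 4 h, 37C/5% CO2; dual luminescence; green/red ratio; MG132 control.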
# [1] = measured here: CBR red luminescence, cell number
Compound,AC50 [1],AC50 (measured here: IkBa-CBG green luminescence)
Cc1ccc(C(=O)N[C@H](C(=O)OCC(=O)NC2CCS(=O)(=O)C2)C(C)C)cc1 (some centres not stated),"16.4 µM [rising, single point]",
Cc1cccc(-n2cnc3sc(C)c(C)c3c2=O)c1,"14.1 µM [falling, single point]",
CN(C)CCCNC(=O)c1cc2c3ccccc3n(C)c2s1,"7.08 µM [falling, partial curve, poor fit]",
C/C(=N\NC(=O)c1csc(C)c1C)c1ccc(Cl)s1,"7.31 µM [falling, partial curve]",
O=C(COc1ccccc1)N1CCN(c2ccc([N+](=O)[O-])c(N3CCCCC3)c2)CC1,"35.5 µM [falling, single point]",
CN(CC(=O)NCC1COc2ccccc2O1)S(=O)(=O)c1ccc(Cl)cc1 (configuration not stated),"6.51 µM [rising, single point]",
CC1CN(S(=O)(=O)c2cccc(C(=O)OCc3cc(=O)oc4cc(O)ccc34)c2)CC(C)O1 (configuration not stated),"20.6 µM [falling, single point]",
O=C(NC1CCCC1)C(c1ccncc1)N(C(=O)c1ccco1)c1ccccc1 (configuration not stated),"15.8 µM [falling, partial curve, poor fit]",
COc1ccccc1/C=C/C=N/Nc1cccc(C(=O)O)c1,"2.24 µM [falling, full curve]",
CCn1ncc(-c2csc(N)n2)c1C,"5.62 µM [rising, single point]",
COc1ccccc1C(=O)NCC(=O)N1CCN(S(=O)(=O)c2ccccc2C(F)(F)F)CC1,"29.1 µM [rising, single point]",
CCc1cccc(CC)c1N1C(=O)c2cc(N3CCOCC3)c([N+](=O)[O-])cc2C1=O,"6.51 µM [rising, partial curve]",
CC(=O)N1CCN(CC(=O)Nc2ccccc2C(=O)Nc2ccccc2)CC1,"4.11 µM [rising, full curve, poor fit]",
Cc1cc(C)c(S(=O)(=O)N2CCC3(CC2)OCCN3S(=O)(=O)c2cccs2)c(C)c1,"32.6 µM [falling, single point]",
COC(=O)c1cccc(N2C(=O)C(Cl)=C(N3CCOCC3)C2=O)c1,"35.5 µM [falling, single point]",
COc1ccc(NC(=O)CSc2nnc(CNC(=O)c3cccs3)o2)c(OC)c1,"11.2 µM [rising, partial curve, poor fit]",
Clc1ccc(/C=N/Nc2nnc(Cl)c3ccccc23)cc1,"0.291 µM [falling, full curve, poor fit]",
COc1ccc(NS(=O)(=O)c2ccc(N3CCCC3=O)cc2)cn1,"6.31 µM [falling, single point]",
COc1ccc(Cn2nc(C(=O)O)c3ccccc3c2=O)cc1F,"0.355 µM [rising, full curve, poor fit]",
O=C(/C=C/c1c[nH]c2ccccc12)c1ccccc1,"8.2 µM [falling, partial curve]",
COc1cc2ccccc2cc1C(=O)Nc1nccs1,"8.91 µM [falling, partial curve, poor fit]","1.58 µM [rising, partial curve, poor fit]"

Compound,AC50 [1],AC50 (measured here: IkBa-CBG green luminescence)
Cc1ccc(C)c(NC(=O)CN(C)S(=O)(=O)c2ccc(F)cc2)c1,"29.1 µM [rising, single point]",
Cc1ccccc1-n1c(SC/C(O)=C(\C#N)c2nc3ccccc3[nH]2)nnc1-c1ccncc1,"6.31 µM [falling, partial curve, poor fit]",
Clc1ccc(-c2nnc3sc(Cc4cccs4)nn23)cc1,"14.1 µM [falling, partial curve]",
CCCCCCCN1C(N(C)C)=NC[C@@H]1Cc1ccccc1,"23.1 µM [falling, single point]",
COc1cccc(-n2cnc3cccc(N)c32)c1,"29.1 µM [falling, single point]",
CCOC(=O)c1c(N)sn(-c2ccccc2C)c1=S,"14.1 µM [rising, partial curve, poor fit]",
COc1ccc(-c2[nH]ncc2CNC(C)c2ccccc2Cl)cc1F (configuration not stated),"22.4 µM [falling, single point]",
CN(C)/C=N/c1sc2c(c1C#N)CCC2,"35.5 µM [rising, single point]",
CC(=O)c1ccc(NC(=O)CSCC(=O)Nc2ccc3ccccc3c2)cc1,"5.17 µM [falling, partial curve, poor fit]",
O=C(Nc1cccc(S(=O)(=O)N2CCCCCC2)c1)c1cncc(Br)c1,"16.4 µM [falling, partial curve]",
CCS(=O)(=O)Nc1cccc(-c2nc3cccnc3s2)c1,"35.5 µM [falling, single point]",
Cc1cccc(OCc2nnc(SCc3cc(=O)[nH]c4ccccc34)n2-c2ccccc2)c1,"18.4 µM [falling, single point]",
CC(=O)c1cc(-c2ccccc2)n(CC(=O)Nc2ccc(C)c(C)c2)c1C,"18.4 µM [rising, partial curve, poor fit]",
Cc1nn(-c2ccccc2)c(Cl)c1/C=N/Nc1ccc(Cl)c(C(=O)O)c1,"16.4 µM [falling, single point]",
N=C1C(c2nc3ccccc3c(=O)[nH]2)=C(O)CN1c1ccccc1,"2.91 µM [rising, partial curve]",
CC(=O)Nc1ccc(S(=O)(=O)Nc2nccc(/C=C/c3ccccc3F)n2)cc1,"0.501 µM [rising, full curve, poor fit]",
COc1cc(C2Nc3cc(Cl)c(S(N)(=O)=O)cc3S(=O)(=O)N2)cc(OC)c1OC (configuration not stated),"35.5 µM [falling, single point]",
CC1=CC2=NC(=O)CC(C)(C(=O)N(CC(=O)NC3CCCC3)c3cc(C)cc(C)c3)N2C=C1 (configuration not stated),"0.562 µM [rising, full curve, poor fit]",
S=C(NCCCc1ccccc1)NC1CCCCC1,"5.62 µM [rising, full curve, poor fit]",
Cn1c(N)c(C(=O)/C=C/c2ccccc2)c(=O)[nH]c1=O,"3.98 µM [falling, full curve]",

# Of the compounds above, these have a COOH group:
Compound,AC50 [1],AC50 (measured here: IkBa-CBG green luminescence)
COc1ccccc1/C=C/C=N/Nc1cccc(C(=O)O)c1,"2.24 µM [falling, full curve]",
COc1ccc(Cn2nc(C(=O)O)c3ccccc3c2=O)cc1F,"0.355 µM [rising, full curve, poor fit]",
Cc1nn(-c2ccccc2)c(Cl)c1/C=N/Nc1ccc(Cl)c(C(=O)O)c1,"16.4 µM [falling, single point]",
